This test is described as follows: qHTS Assay to Find Inhibitors of Chronic Active B-Cell Receptor Signaling. The conditions noted are these: ABC-DLBCL IkBa-CBG/CBR reporter, luminescence ratio (green luciferase fused to IkBa over red control in TMD8 lymphoma cells), 4 h. The essentials: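 Doxycycline induced both beetle luciferases in TMD8 lymphoma cells; IKK-driven degradation limits the IkappaBalpha-fused green signal, while red luminescence normalises for cell number and nonspecific effects. Compounds tested up to 46 uM, 4 hrs.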
A general note: qHTS replaces the single test concentration by a dilution series.

Setting [1] is: measured here: CBR red luminescence, cell number.
Where [2] appears, read: measured here: IkBa-CBG green luminescence.

The other results are listed elsewhere or left out. The main result of the screen is listed elsewhere. These columns were measured beside it and carry no call. Compounds called inactive in the main read-out are mostly missing here. Words in brackets tell the shape of the fitted curve; partial curves, single points and poor fits give uncertain potencies.

Consider 64 compounds from PubChem BioAssay AID493014 (National Center for Advancing Translational Sciences (NCATS), 2011).

By AC50 is commonly meant the concentration at which the activity in the assay is half-maximal. Consider `O=C(NCc1ccco1)c1ccc(-c2ccccc2Cl)o1`, for which, under setting [1], the AC50 is 20 µM [falling, single point].

In the case of `COc1ccc(Cl)cc1-n1c(C)cc(C=O)c1C`, the AC50 under setting [1] was 6.51 µM [rising, single point].

Regarding `NC(=O)c1ccccc1N/C=C/C(=O)c1ccc(F)cc1`, the AC50 under setting [1] is 2 µM [falling, full curve].

For `O=C(CSc1nnc(-c2ccc(Cl)cc2)n1-c1ccc(Cl)cc1)N/N=C/c1ccco1`, under setting [1], the AC50 is 2.06 µM [rising, full curve, poor fit].

As for `Cc1ccc(NC(=O)CNc2ccccc2CN(C)C2CCCCC2)cc1`, the AC50 under setting [1] is 25.1 µM [falling, partial curve, poor fit].

As for `O=C1CC(N(O)c2ccccc2)C(=O)N1c1ccc(Cl)c(Cl)c1` (configuration not stated), under setting [1], the AC50 is 0.282 µM [falling, full curve, poor fit].

On to `O=C(CCC(=O)c1ccccc1)NCCc1c[nH]c2ccccc12`, for which the AC50 under setting [1] is 20.6 µM [rising, partial curve, poor fit].

As for `N#Cc1c(NC(=O)c2cc(C3CC3)on2)sc2c1CCC2`, under setting [1], the AC50 was 2.51 µM [rising, full curve, poor fit].

`CCOC(=O)c1cc2n(c1N)-c1ccccc1C2=O`: under setting [1], the AC50 is 4.61 µM [rising, partial curve].

As for `COc1ccc(CCn2c(C)nc3c(c(=O)c4ccccc4n3C)c2=O)cc1`, the AC50 under setting [1] is 8.91 µM [falling, partial curve].

As for `CC(C)(C)NC(=O)CSc1nc2ccc(Nc3nc(N4CCOCC4)nc(N4CCOCC4)n3)cc2s1`, the AC50 under setting [1] is 8.91 µM [falling, partial curve, poor fit].

Regarding `c1ccc(CSc2nnnn2-c2ccc3c(c2)OCCO3)nc1`, the AC50 under setting [1] was 2.51 µM [rising, single point].

Regarding `CCC(=O)Nc1nc2ccc([N+](=O)[O-])cc2s1`, the AC50 under setting [1] is 0.1 µM [rising, full curve, poor fit].

On to `CCOC(=O)c1c(O)cc(C)[nH]c1=O`, for which the AC50 under setting [1] is 5.62 µM [falling, partial curve, poor fit].

`COc1ccc(-c2nnc(Sc3nc4ccccc4o3)c3ccccc23)cc1`: the AC50 under setting [1] is 35.5 µM [rising, single point].

Turning to `O=C1C=C(c2ccc(Cl)cc2)C(=O)N1Nc1ccccc1`, under setting [1], the AC50 was 1.84 µM [falling, full curve].

`COc1cc2c(CCNC(C)=O)c[nH]c2cc1Cl`: under setting [1], the AC50 was 16.4 µM [rising, partial curve, poor fit].

`Nc1cc(N)nc(SCC(=O)N2CCc3ccccc32)n1`: under setting [1], the AC50 is 3.66 µM [falling, full curve, poor fit].

As to `Cc1ccccc1-c1nc2ccccc2[nH]1`, the half-maximal activity concentration (AC50) under setting [1] was 2.31 µM [falling, full curve].

For `CSCCC(NS(=O)(=O)c1cccc(C(F)(F)F)c1)C(=O)N(C)CCOc1ccc(Cl)cc1` (configuration not stated), the AC50 under setting [1] is 25.9 µM [falling, partial curve, poor fit].

For the compound `CCOc1cc(/C=C2\SC(=NC)N(C)C2=O)c(Br)cc1OC(C)=O`, under setting [1], the AC50 was 4.47 µM [falling, partial curve, poor fit].

As for `COc1ccccc1NC(=O)C(=O)NCC1COc2ccccc2O1` (configuration not stated), under setting [1], the AC50 is 11.6 µM [falling, partial curve].

In the case of `COc1ccc(C2c3[nH]c4ccccc4c3CCN2Cc2ccoc2)c(F)c1` (configuration not stated), the AC50 under setting [1] was 15.8 µM [falling, partial curve, poor fit].

As for `Cc1ccc(/C=N/NC(=O)CN2CCN(Cc3ccccc3)CC2)s1`, the AC50 under setting [1] is 0.501 µM [rising, partial curve, poor fit].

With `Cc1csc(NC(=O)CSc2nc3ccccc3s2)n1`, the AC50 under setting [1] is 8.91 µM [falling, partial curve, poor fit].

For `Cc1ccc(/C=N/NC(=O)Nc2ccccc2)o1`, the AC50 under setting [1] is 13 µM [falling, partial curve].

In the case of `COc1cc(/C=N/NC(=O)Cc2c[nH]c3ccccc23)cc(OC)c1OC`, the half-maximal activity concentration (AC50) under setting [1] is 35.5 µM [falling, single point].

Consider `COc1ccc(OCc2cccc(C(=O)O)c2)cc1`, for which, under setting [1], the AC50 is 1.03 µM [falling, partial curve].

Take `CCOc1ccccc1C1CC(=O)Nc2cc3c(cc21)OCCO3` (configuration not stated): the AC50 reads like this: under setting [1], 10 µM [rising, partial curve]; under setting [2], 8.91 µM [falling, partial curve].

Turning to `N#C/C(=C/c1ccc(N2CCCCC2)o1)C(=O)Nc1ccc2ccccc2c1`, the AC50 under setting [1] was 32.6 µM [falling, single point].

Regarding `Cc1ccc(-c2csc(NC(=S)NC(=O)c3ccco3)n2)cc1`, the AC50 under setting [1] is 0.731 µM [rising, full curve, poor fit].

In the case of `Cc1c([C@H]2[C@@H](CC#N)C2(C)C)c2ccccc2n1C`, the AC50 under setting [1] was 0.461 µM [rising, full curve, poor fit].

As for `COc1cc(NC(=O)Nc2ccccc2OC)c(OC)cc1NC(=O)CN1CCCCC1`, under setting [1], the AC50 is 0.112 µM [falling, full curve, poor fit].

With `C=CCn1c(SCC(=O)Nc2ccccc2OC)nnc1-c1ccccn1`, under setting [1], the AC50 was 2.91 µM [falling, partial curve, poor fit].

Consider `CC(C)(C)c1csc(CS(=O)(=O)c2ccccn2)n1`, for which the concentration at half-maximal activity (AC50) under setting [1] was 7.08 µM [falling, partial curve, poor fit].

Turning to `CSCC[C@H](NC(=O)OC(C)(C)C)C(=O)N/N=C/c1c(C)[nH]c(=O)[nH]c1=O`, the AC50 under setting [1] is 0.366 µM [rising, full curve, poor fit].

Turning to `Cc1ccc(NC(=O)c2ccc3ccccc3n2)nc1`, the AC50 under setting [1] was 16.4 µM [falling, single point].

As for `CN(C)S(=O)(=O)c1ccc(C(=O)OCC(=O)N2CC3(C)CC2CC(C)(C)C3)cc1` (configuration not stated), the AC50 under setting [1] was 0.731 µM [falling, partial curve, poor fit].

As to `CCC1=NN(C(=O)c2ccc(Br)cc2)C(O)(c2ccc(C)cc2)C1` (configuration not stated), the AC50 under setting [1] was 11.6 µM [falling, partial curve, poor fit].

For `CCOC(=O)c1cnc(SCc2ccc(C)cc2)nc1N`, the AC50 under setting [1] is 29.1 µM [falling, single point].

Regarding `O=C(NC(=S)Nc1ccccc1Cl)c1csnn1`, under setting [1], the AC50 is 3.16 µM [falling, full curve].

With `CC(=O)Nc1ccc2c(COC(=O)[C@@H](NS(=O)(=O)c3ccc(C)cc3)C(C)C)cc(=O)oc2c1`, the AC50 under setting [1] was 0.116 µM [rising, full curve, poor fit].

As to `O=C(O)c1nn(Cc2nc3ccccc3o2)c(=O)c2ccccc12`, the AC50 under setting [1] is 1.58 µM [rising, partial curve, poor fit].

As for `COCCNC(=S)N(CCc1c(C)[nH]c2ccc(C)cc12)Cc1ccco1`, the concentration at half-maximal activity (AC50) under setting [1] is 10 µM [falling, partial curve, poor fit].

In the case of `O=C(NNC(=O)c1ccccc1O)c1cc2ccccc2o1`, under setting [1], the AC50 was 0.461 µM [falling, full curve].

As to `CN1CCN(C(CNS(=O)(=O)c2ccc([N+](=O)[O-])cc2)c2ccc(F)cc2)CC1` (configuration not stated), the AC50 under setting [1] is 1.84 µM [falling, partial curve, poor fit].

As for `COc1ccc(Cn2c(C)c(C)c(C#N)c2NC(=O)Nc2ccc(F)cc2)cc1`, the AC50 under setting [1] was 3.55 µM [falling, full curve, poor fit].

As to `CCc1ccc(C2NC(c3ccc(CC)cc3)C([N+](=O)[O-])C(C)(C)C2[N+](=O)[O-])cc1` (configuration not stated), the AC50 under setting [1] was 7.31 µM [rising, partial curve, poor fit].

Consider `Cc1cccc(OCc2nc(C#N)c(N3CC(C)CC(C)C3)o2)c1` (configuration not stated), for which the AC50 under setting [1] was 13 µM [falling, partial curve, poor fit].

As to `CC(=O)Nc1ccc(S(=O)(=O)NCCSCc2ccc(Cl)cc2Cl)cc1`, the AC50 under setting [1] is 14.1 µM [falling, single point].

`CCOc1ccc(-c2nnn(CCC#N)n2)cc1OC`: the AC50 under setting [1] is 15.8 µM [rising, partial curve].

`COc1ccc(Cc2noc(CN3CCCC(OCc4ccccn4)C3)n2)cc1OC` (configuration not stated): under setting [1], the AC50 was 7.08 µM [rising, full curve, poor fit].

For the compound `Clc1ccc(-n2cc(COCc3ccccc3)nn2)cc1`, under setting [1], the AC50 is 7.94 µM [falling, partial curve].

For `CN(C)c1ccc(/C=C/c2cc[n+]([O-])cc2)cc1`, the AC50 under setting [1] was 8.91 µM [rising, partial curve, poor fit].

With `Cc1cccc(/C=N/NC(=O)c2cc(Br)ccc2O)n1`, the AC50 by setting is: under setting [1], 3.98 µM [falling, partial curve, poor fit]; under setting [2], 35.5 µM [falling, single point].

Regarding `Cc1cccc(NC(=O)CNC(=O)Cc2ccc3c(c2)OCCO3)c1C`, the concentration at half-maximal activity (AC50) under setting [1] was 0.82 µM [rising, full curve, poor fit].

On to `COc1ccc2c(CC(=O)NCc3cccs3)coc2c1`, for which the AC50 under setting [1] was 22.4 µM [falling, single point].

In the case of `Cc1nc(C)c(C(=O)N/N=C/c2ccco2)s1`, the AC50 under setting [1] was 14.1 µM [falling, partial curve].

Consider `CN1CCSc2ccc(C(=O)Nc3ccc(Cl)cc3)cc21`, for which the AC50 under setting [1] is 0.891 µM [falling, full curve].

Consider `COc1ccc(C=O)cc1COc1ccc([N+](=O)[O-])c(C)c1`, for which the AC50 under setting [1] is 7.94 µM [rising, partial curve].

As for `Cc1onc(-c2ccccc2)c1C(=O)Nc1cc(C(F)(F)F)ccc1N1CCOCC1`, the AC50 by setting is: under setting [1], 10 µM [rising, partial curve]; under setting [2], 15.8 µM [falling, partial curve].

For `O=c1[nH]c2ccccc2c(=O)n1Cc1ccco1`, under setting [1], the AC50 is 22.4 µM [falling, single point].

On to `Cc1ccc(OCC(=O)NNC(=O)c2ccc(NC(=O)C3CC3)cc2)c(C)c1`, for which the AC50 under setting [1] was 0.501 µM [falling, partial curve, poor fit].

Consider `Cc1nc(SCC(=O)c2ccccc2)c([N+](=O)[O-])[nH]1`, for which the AC50 under setting [1] is 12.6 µM [falling, single point].
